In this series the test system is BT474-Br cells. The series can be described thus: Reverse phase protein array (RPPA). Particulars: 10 μM. The class given is cell-based.

Structures are written as SMILES. Where a name gives a salt, the structure may show the parent alone.

`CN1CCCC(CC2c3ccccc3Sc3ccccc32)C1` (centres unmarked) [metixene hydrochloride]: the “number of proteins with significant alteration in expression or phosphorylation (p<0.001)” value stood at 52 (12 hours) and 26 (24 hours).

The values are drawn from patent US20260174674A1, “INCOMPLETE AUTOPHAGY INDUCTION FOR THE TREATMENT OF CANCER” (Northwestern University, priority 2022, published 2026).
